Laboratory results reported in PubChem BioAssay AID1671190 (National Center for Advancing Translational Sciences (NCATS), 2021).
About 6,100 (1.1%) of roughly 580,000 compounds were called active. This list was built around the results that the source calls inconclusive (neither active nor inactive); the mix of calls is not that of the screen. The call rests on the fitted dose curve; in most records, active means well fitted inhibition curve with a large enough effect; inconclusive means small, poorly fitted or top-dose-only effect, or another doubt; inactive means no such curve, though single readings can be large or run the other way. Where the call is inconclusive, the potency comes from a doubtful curve fit.

Chains of the proteins cited; added tags and fusions are not shown. Lines headed by an entry give the natural chain unless they say otherwise; changes in a name come on top.
UniProt P18054: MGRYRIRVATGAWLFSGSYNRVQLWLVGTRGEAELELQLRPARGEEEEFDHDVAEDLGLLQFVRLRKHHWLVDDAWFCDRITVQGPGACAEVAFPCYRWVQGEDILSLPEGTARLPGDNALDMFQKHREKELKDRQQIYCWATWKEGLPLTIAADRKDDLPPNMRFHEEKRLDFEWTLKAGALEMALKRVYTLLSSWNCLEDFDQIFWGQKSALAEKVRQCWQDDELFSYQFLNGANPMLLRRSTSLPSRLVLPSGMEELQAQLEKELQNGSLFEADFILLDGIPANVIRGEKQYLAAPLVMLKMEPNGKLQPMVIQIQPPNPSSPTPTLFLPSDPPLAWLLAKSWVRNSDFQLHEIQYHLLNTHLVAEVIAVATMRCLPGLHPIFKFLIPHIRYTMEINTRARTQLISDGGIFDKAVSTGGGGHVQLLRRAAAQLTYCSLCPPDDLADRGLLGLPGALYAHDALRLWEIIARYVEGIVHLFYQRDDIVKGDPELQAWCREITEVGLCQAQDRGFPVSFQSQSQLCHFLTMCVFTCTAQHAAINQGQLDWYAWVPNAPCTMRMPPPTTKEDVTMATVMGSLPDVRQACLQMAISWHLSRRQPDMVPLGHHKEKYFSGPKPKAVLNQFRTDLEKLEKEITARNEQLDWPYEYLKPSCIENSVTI

molecular target: Polyunsaturated fatty acid lipoxygenase ALOX12 (Homo sapiens) (UniProt P18054); test: Primary qHTS assay for inhibitors of human arachidonate 12S-lipoxygenase (ALOX12): Round 2; conditions: purified 12hLO, xylenol orange hydroperoxide absorbance; activity change, negative = inhibition: at 108 µM (top of the series) unless noted
Procedure, shortened: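 Purified human 12hLO (150 nM final) in 25 mM Hepes, 0.01% Triton X-100, pH 7.0 was preincubated 15 min at room temperature with compound. Then 40 uM arachidonic acid was added, 30 min. Hydroperoxide was read by Fe-XO absorbance ratio 573/405 nm.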
On the % scale 0 is the no-effect control and ±100 the full control effect; potency means the concentration at half of the fitted maximal effect.

Compound | Potency | activity change, negative = inhibition
O=C(O)/C(=C/c1ccc(Cl)c([N+](=O)[O-])c1)c1ccc(S(=O)(=O)N2CCCCC2)s1 | active: 25.1 µM | 
Cc1ccc(C)c(CS(=O)CCC(=O)Nc2ccccc2)c1 (stereo unspecified) | inconclusive: 50.1 µM [inhibitor, partial curve, poor fit] | 
Cc1cc(NC(=O)CSc2nc3c(c(-c4cccnc4)c2C#N)CCC3)no1 | inconclusive: 35.5 µM [inhibitor, partial curve, poor fit] | 
COCCN1C(=O)C(=O)/C(=C(/O)c2ccc(C)cc2)C1c1ccccn1 (stereo unspecified) | inconclusive: 39.8 µM [inhibitor, partial curve] | 
Cc1cnc(-n2ncc(C(=O)NCc3ccncc3)c2-c2cccs2)nc1-c1ccc(F)cc1 |  | inactive: -1.1%
CC(C)(C)c1ccc(S(=O)(=O)Nc2ccc(Cc3ccncc3)cc2)cc1 |  | inactive: -4.31%
CSC(=S)N/N=C/c1ccc(N(C)C)cc1 |  | inactive: -5.17%
Cc1nc(Nc2ccccc2F)sc1C(=O)Nc1ccccc1 | inconclusive: 50.1 µM [inhibitor, single point] | 
Cc1oc(-c2ccccc2)nc1CC(=O)Nc1cccc(S(=O)(=O)N2CCCCC2)c1 | inconclusive: 100 µM [inhibitor, partial curve, poor fit] | 
Cc1cc(SCC(=O)Nc2ccc(F)c(F)c2F)nc2ccccc12 | inconclusive: 70.8 µM [inhibitor, single point] | 
CCn1c(=N)n(CC(=O)c2cccc([N+](=O)[O-])c2)c2ccccc21 |  | inactive: -10.3%
CCOC(=O)c1sc(Nc2nc3c(F)cccc3s2)cc1C |  | inactive: 5.93%
COc1cc(-c2n[nH]c3ccnc(-c4cccc(C(F)(F)F)c4)c23)cc(OC)c1OC | inconclusive: 50.1 µM [inhibitor, partial curve, poor fit] | 
O=c1c2c3nc4ccccc4nc3n(Cc3ccccc3)c2ncn1Cc1ccco1 | inconclusive: 39.8 µM [inhibitor, partial curve, poor fit] | 
Cn1c(O)c(N=Nc2ccc(F)cc2)c2ccccc21 | active: 17.8 µM | 
CC1CCN(CCCNC2CCCC2)CC1 | inconclusive: 50.1 µM [inhibitor, partial curve, poor fit] | 
COCCNC(=O)N1CCc2nc(N(C)C)[nH]c(=O)c2CC1 |  | inactive: 31.4%
Cc1ccc(Nc2ccc(N3CCN(C(=O)c4ccc([N+](=O)[O-])cc4Cl)CC3)nn2)cc1 |  | inactive: -72.2%
O=C(O)CCC(=O)N1Cc2ccccc2CC2(CCCN2Cc2cccnc2)C1 (stereo unspecified) | inconclusive: 2.54 µM [inhibitor, partial curve] | 
CC(=O)N[C@H](C)c1onc(-c2ccc(Cl)cc2)c1C(=O)O | inconclusive: 50.1 µM [inhibitor, partial curve] | 
Cc1ccc(NC(=S)N2CCN(Cc3ccccc3)CC2)cc1 |  | inactive: -15.2%
Cc1ccc(C2CC(=O)C3=C(C2)OC(N)=C(C#N)C3c2ccccc2Cl)cc1 (stereo unspecified) | inconclusive: 17.8 µM [inhibitor, full curve] | 

Filtered by structure: the compounds so far with an NH in an aromatic ring
Compound | Potency | activity change, negative = inhibition
COc1cc(-c2n[nH]c3ccnc(-c4cccc(C(F)(F)F)c4)c23)cc(OC)c1OC | inconclusive: 50.1 µM [inhibitor, partial curve, poor fit] | 
COCCNC(=O)N1CCc2nc(N(C)C)[nH]c(=O)c2CC1 |  | inactive: 31.4%

(listing goes on)

Compound | Potency | activity change, negative = inhibition
Cc1cc(C)cc(NC(=S)Nc2cccc3ccccc23)c1 | inconclusive: 44.7 µM [inhibitor, partial curve, poor fit] | 
Cc1cc(C)n(-c2nc(NCCN(C)C)c3c4c(sc3n2)CCCC4)n1 | inconclusive: 100 µM [inhibitor, single point] | 
COC(=O)c1ccc(N2CCN(S(=O)(=O)c3ccc4ccccc4c3)CC2)c([N+](=O)[O-])c1 |  | inactive: -12.2%
Cc1nnc(N2CCN(C(=O)Nc3cc(F)ccc3F)CC2)c2nn(-c3ccc(Cl)cc3)c(C)c12 | inconclusive: 70.8 µM [inhibitor, partial curve, poor fit] | 
Cc1ccc(S(=O)(=O)N(C)C)cc1C(=O)OC(C)C(=O)c1ccccc1 (stereo unspecified) |  | inactive: 36.6%
COc1ccc2c(c1)c(CC(=O)OCC(N)=O)c(C)n2C(=O)c1ccc(Cl)cc1 | inconclusive: 89.1 µM [inhibitor, single point] | 
O=C(NC1CCCCC1)c1cc2c(F)cccc2s1 | inconclusive: 44.7 µM [inhibitor, partial curve, poor fit] | 
COc1ccc(CCn2c(-c3ccncc3)n[nH]c2=S)cc1OC | inconclusive: 89.1 µM [inhibitor, partial curve, poor fit] | 
CS(=O)(=O)c1cc([N+](=O)[O-])c(Sc2nc3ccccc3[nH]2)c([N+](=O)[O-])c1 | inconclusive: 39.8 µM [inhibitor, partial curve, poor fit] | 
Cc1c(CC(=O)Nc2ccc(Cn3cncn3)cc2)c(=O)oc2cc(O)ccc12 |  | inactive: 7.72%
CN(C)C(=O)c1ccc(-c2nccc(NCc3cccs3)n2)cc1 | inconclusive: 8.91 µM [inhibitor, full curve, poor fit] | 
COC(=O)c1ccc(CSc2ccccc2NC(=S)Nc2cccc(C(F)(F)F)c2)o1 | inconclusive: 44.7 µM [inhibitor, partial curve, poor fit] | 
Cc1ccc(C2(O)CCN(C(=O)c3ccccc3-c3nn[nH]n3)CC2)nc1 | inconclusive: 4.47 µM [inhibitor, full curve, poor fit] | 
O=C(Nc1nc(-c2ccc(F)c(F)c2)cs1)C1=COCCO1 | inconclusive: 112 µM [inhibitor, single point] | 
CCc1ccc(C(=O)N2CCC(Cc3nc(-c4ccc(OC)cc4)no3)CC2)cc1 |  | inactive: 15.2%
CC1=NN(C(N)=S)C(=O)C1N=Nc1ccccc1Cl (stereo unspecified) |  | inactive: -15.6%
Nc1ccc(C(=O)NN2C(=O)[C@H](Cl)C2c2ccc(Cl)cc2)cc1 (stereo partly specified) | inconclusive: 44.7 µM [inhibitor, partial curve, poor fit] | 
CCOC(=O)Nc1ccc2c(c1)N(C(=O)CCCl)c1ccccc1[S@]2=O | inconclusive: 79.4 µM [inhibitor, single point] | 
CC(C)[C@@H](NC(=O)OC(C)(C)C)c1cc(C(=O)c2c(-c3ccccc3)[nH]c3ccccc23)c(N)s1 | inconclusive: 112 µM [inhibitor, partial curve, poor fit] | 
CCCCN(C(=O)c1ccc(NC2CC2)c([N+](=O)[O-])c1)c1c(N)n(CC(C)C)c(=O)[nH]c1=O | inconclusive: 158 µM [inhibitor, single point] | 
Cc1cccc(N/N=C/c2ccc(C#N)cc2)c1 | active: 17.8 µM | 
Cc1ccc2cc3cc(C(=O)NC4CCCC4)sc3nc2c1 | inconclusive: 22.4 µM [inhibitor, partial curve, poor fit] | 

Compound | Potency | activity change, negative = inhibition
CC1CCCN(CCC(=O)c2ccc(Br)cc2)C1 (stereo unspecified) | inconclusive: 28.2 µM [inhibitor, partial curve] | 
CCN(CC)C(=O)CSc1nnc(-c2cc(-c3ccc(Cl)cc3)nc3ccccc23)o1 |  | inactive: -17.5%
CCCOc1ccc(/C=N/Nc2ccc(C(=O)O)cc2)c(OCCC)c1 | inconclusive: 44.7 µM [inhibitor, partial curve, poor fit] | 
O=S(=O)(Nc1nc2ccccc2nc1Cl)c1ccccc1C(F)(F)F | inconclusive: 31.6 µM [inhibitor, partial curve] | 
COc1ccc(-c2nc3c(C)cccc3cc2CN(C)Cc2ncc[nH]2)cc1OC |  | inactive: 76.7%
COc1ccc(-c2cc(C(=O)N3CCN(S(=O)(=O)c4ccc(C)cc4)CC3)[nH]n2)cc1 | inconclusive: 28.2 µM [inhibitor, single point] | 
CCC(O)c1cc2n(n1)CCN(Cc1nnc(-c3cccc(F)c3)o1)C2 (stereo unspecified) |  | inactive: 70.3%
CCOC(=O)c1cccc(NC(=O)c2ncoc2-c2ccc(OC)c(OC)c2)c1 | inconclusive: 126 µM [inhibitor, single point] | 
CCc1ccc(-n2c(CCC(=O)O)ccc2-c2cccs2)cc1 |  | inconclusive: -30.8% [inhibitor]
CC(/C=C1\SC(=S)N(C(C(=O)O)C(C)C)C1=O)=C\c1ccccc1 (stereo unspecified) | inconclusive: 50.1 µM [inhibitor, partial curve, poor fit] | 
O=C(Nc1nc(-c2ccc(S(=O)(=O)N3CCCC3)cc2)cs1)C1COc2ccccc2O1 (stereo unspecified) |  | inactive: 0%
CN(Cc1ccc(-c2ccc(Br)cc2)o1)C(=O)CSc1nnc(C2CC2)n1C1CC1 | inconclusive: 100 µM [inhibitor, partial curve, poor fit] | 
CCOCCOc1cccc(N)c1 | inconclusive: 31.6 µM [inhibitor, single point] | 
CCn1nccc1C(=O)N1CCC2(CC1)CC(N1CCN(c3ccccn3)CC1)CCO2 (stereo unspecified) |  | inactive: 44.9%
CCCn1cnc2nc(COc3cc(NC(=O)COc4ccc(C)c(C)c4)ccc3C)cc(=O)n21 |  | inactive: -16.8%
CS(=O)(=O)Nc1cccc(-c2nc(NCc3ccccc3)c3ccccc3n2)c1 | inconclusive: 35.5 µM [inhibitor, partial curve, poor fit] | 
O=C(CCCN1C(=O)C2CCCCN2C1=O)N1CCN(c2ccc([N+](=O)[O-])cc2)CC1 (stereo unspecified) | inconclusive: 89.1 µM [inhibitor, single point] | 
CC(C)c1ccc(S(=O)(=O)c2nnn3c2nc(NC2CCCC2)c2ccccc23)cc1 |  | inactive: 9.39% [at 6.33 µM]
CC1CCN(C(NC(=O)c2cccs2)C(=O)c2ccccc2)CC1 (stereo unspecified) | inconclusive: 89.1 µM [inhibitor, single point] | 
NC1CC(c2cc(N3CCN(CCOc4ccccc4)CC3)ncn2)C1 (stereo unspecified) | inconclusive: 5.01 µM [inhibitor, full curve, poor fit] | 
Cc1c(CC(=O)NC2CC2)c(=O)oc2cc(O)c(Cl)cc12 |  | inactive: -6.6%
Cn1c(=O)c2c(nc(CN3CCc4ccccc4C3)n2CCCO)n(C)c1=O | inconclusive: 20 µM [inhibitor, full curve, poor fit] | 
